US12173030
Positions count from the first letter of the chain named. These are yes or no findings as the source states them, for the method shown. Some entries that bind do so weakly or less than the wild type.

T1: human myelin oligodendrocyte glycoprotein (MOG) (human) (UniProt Q16653)
T1 sequence (looked up): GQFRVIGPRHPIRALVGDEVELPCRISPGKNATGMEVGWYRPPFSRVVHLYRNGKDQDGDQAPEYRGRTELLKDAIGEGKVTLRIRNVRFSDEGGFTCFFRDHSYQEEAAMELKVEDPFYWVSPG

B1: Clone 1 anti-human MOG scFv (scFv, not shown: small tags and cut ends)
scFv: EVQLLESGGGLVQPGGSLRLSCAASGFTFSSYAMSWVRQAPGKGLEWVSSISDYGNTTAYADSVKGRFTISRDNSKNTLYLQMNSLRAEDTAVYYCAKNANYFDYWGQGTLVTVSSGGGGSGGGGSGGGGSTDIQMTQSPSSLSASVGDRVTITCRASQSISSYLNWYQQKPGKAPKLLIYDASSLQSGVPSRFSGSGSGTDFTLTISSLQPEDFATYYCQQTSTYPGTFGQGTKVEIK
B2: Clone 3 anti-human MOG scFv (scFv, not shown: small tags and cut ends)
scFv: EVQLLESGGGLVQPGGSLRLSCAASGFTFSSYAMSWVRQAPGKGLEWVSSISSYGSYTGYADSVKGRFTISRDNSKNTLYLQMNSLRAEDTAVYYCAKNGYAFDYWGQGTLVTVSSGGGGSGGGGSGGGGSTDIQMTQSPSSLSASVGDRVTITCRASQSISSYLNWYQQKPGKAPKLLIYGASALQSGVPSRFSGSGSGTDFTLTISSLQPEDFATYYCQQNDASPNTFGQGTKVEIK
B3: Clone 6 anti-human MOG scFv (scFv, not shown: small tags and cut ends)
scFv: EVQLLESGGGLVQPGGSLRLSCAASGFTFSSYAMSWVRQAPGKGLEWVSTISTYGDYTTYADSVKGRFTISRDNSKNTLYLQMNSLRAEDTAVYYCAKGSYTFDYWGQGTLVTVSSGGGGSGGGGSGGGGSTDIQMTQSPSSLSASVGDRVTITCRASQSISSYLNWYQQKPGKAPKLLIYSASYLQSGVPSRFSGSGSGTDFTLTISSLQPEDFATYYCQQSNATPSTFGQGTKVEIK
B4: Clone 17 anti-human MOG scFv (scFv, not shown: small tags and cut ends)
scFv: B3 scFv with T50S, Y54S, D56S, T59A, S100G, Y185T, N224D, A225G, T226N, S228T
B5: Clone 10 anti-human MOG scFv (scFv, not shown: small tags and cut ends)
scFv: EVQLLESGGGLVQPGGSLRLSCAASGFTFSSYAMSWVRQAPGKGLEWVSGITNYGYTTYYADSVKGRFTISRDNSKNTLYLQMNSLRAEDTAVYYCAKSSYSFDYWGQGTLVTVSSGGGGSGGGGSGGGGSTDIQMTQSPSSLSASVGDRVTITCRASQSISSYLNWYQQKPGKAPKLLIYAASALQSGVPSRFSGSGSGTDFTLTISSLQPEDFATYYCQQSAYYPDTFGQGTKVEIK
B6: Clone 13 anti-human MOG scFv (scFv, not shown: small tags and cut ends)
scFv: EVQLLESGGGLVQPGGSLRLSCAASGFTFSSYAMSWVRQAPGKGLEWVSSINSAGGSTYYADSVKGRFTISRDNSKNTLYLQMNSLRAEDTAVYYCAKNSAYFDYWGQGTLVTVSSGGGGSGGGGSGGGGSTDIQMTQSPSSLSASVGDRVTITCRASQSISSYLNWYQQKPGKAPKLLIYDASNLQSGVPSRFSGSGSGTDFTLTISSLQPEDFATYYCQQTDTYPTTFGQGTKVEIK

target: T1, human myelin oligodendrocyte glycoprotein (MOG) (human); experiment: monoclonal phage ELISA, positive clones

binding | Binder
binds | B1
binds | B2
binds | B3
binds | B4
binds | B5
binds | B6

target: T1, human myelin oligodendrocyte glycoprotein (MOG) (human); experiment: QC ELISA, purified scFv-myc-6xHis on target MOG

binding | Binder
binds | B1
binds | B2
binds | B3
binds | B4
binds | B5
binds | B6

target: T1, human myelin oligodendrocyte glycoprotein (MOG) (human); experiment: soluble ELISA with cell lysates (30 C and 37 C)

binding | Binder
binds | B1
binds | B2
binds | B3
binds | B4
binds | B5
binds | B6

target: T1, human myelin oligodendrocyte glycoprotein (MOG) (human); experiment: QC ELISA titration, seven concentrations, scFv induced at 16 C (FIG. 8)

binding | Binder
binds | B1
binds | B2
binds | B3
binds | B4
binds | B5
binds | B6
